In PMC4267777 one finds binding data, which are given here for one substance.

Chains of the proteins cited; added tags and fusions are not shown.
UniProt P22535: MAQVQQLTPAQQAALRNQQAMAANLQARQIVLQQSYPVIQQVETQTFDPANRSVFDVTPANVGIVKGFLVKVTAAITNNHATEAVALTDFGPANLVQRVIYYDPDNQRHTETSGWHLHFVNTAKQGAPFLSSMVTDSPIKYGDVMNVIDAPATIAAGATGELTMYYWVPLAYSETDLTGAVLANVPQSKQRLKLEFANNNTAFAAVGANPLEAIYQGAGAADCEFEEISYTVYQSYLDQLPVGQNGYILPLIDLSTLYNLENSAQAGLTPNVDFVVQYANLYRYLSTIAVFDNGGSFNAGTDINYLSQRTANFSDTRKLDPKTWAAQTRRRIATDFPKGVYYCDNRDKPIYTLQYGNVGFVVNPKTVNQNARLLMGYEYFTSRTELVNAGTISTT

Results are given in words; binding and its absence hold for the method and conditions named. Some binding calls cover weakened binding; strength is not graded here.

In the assay the target is major capsid protein P3 of bacteriophage PRD1 (bacteriophage PRD1) (UniProt P22535). In words: cryo-EM structure; mature wt PRD1 virion, purified particles, single particle reconstruction without icosahedral symmetry imposition at 12 Å; crystal structures of P3 and P31 docked; proteins assigned by comparison with procapsid and mutant particles.

Take “major capsid protein P3 of bacteriophage PRD1 (from UniProt P22535 1-395)”: the binding result is “binds”.
